Reference: PubChem BioAssay AID504808 (Drosophila RNAi Screening Center, 2011)

- Test: 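Genes whose loss lifts activity of an E2F-responsive reporter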 (primary screen)
- Cell system: Drosophila S2 cells
- Knock-down reagent: long dsRNA against Drosophila genes
- Read-out: 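Dual luciferase plate measurements; E2F-specific signal taken as firefly over Renilla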
- Scale: E2F firefly: higher = more E2F reporter activity; Renilla normaliser: higher = more normaliser reporter signal
- Hit rule: 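Called active if the normalised E2F reporter went up by over 50%; the cutoff is arbitrary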
In all, the deposit lists about 21,000 reagents; shown is a random part of those with a known target gene and a result. In the full data, 18 (0.084%) got an active call. 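Raw counts without plate normalisation, one of two replicates; the ratio scores behind the calls were not deposited.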 The numbers tell different reagents against one gene apart. A plus sign joins genes that one reagent is predicted to hit. Reagent sequences are not shown. The record does not give: the amount of reagent, the time to read-out.

predicted target | reagent | E2F firefly, rep 1 | Renilla normaliser, rep 1 | outcome
mrn | 1 | 66244 | 3286 | inactive
CG15728 | 1 | 1.18e5 | 5326 | inactive
SdhCL | 1 | 1.41e5 | 6170 | inactive
Cand1 | 1 | 71371 | 3104 | inactive
CG13842 | 1 | 1.07e5 | 5467 | inactive
Obp22a | 1 | 1.38e5 | 5232 | inactive
inaE | 1 | 1.58e5 | 6097 | inactive
inaE | 2 | 8484 | 812 | inactive
inaE | 3 | 1.35e5 | 6223 | inactive
inaE | 4 | 1.41e5 | 5272 | inactive
CG15035 | 1 | 1.11e5 | 5393 | inactive
hoka | 1 | 1.00e5 | 4056 | inactive
CG15019 | 1 | 84647 | 3563 | inactive
RPA1 | 1 | 63553 | 3509 | inactive
CG13501 | 1 | 1.23e5 | 4323 | inactive
Orc2 | 1 | 70064 | 3190 | inactive
E(bx) | 1 | 1.14e5 | 4972 | inactive
E(bx) | 2 | 1.06e5 | 5388 | inactive
E(bx) | 3 | 78866 | 3566 | inactive
wnd | 1 | 75924 | 3258 | inactive
wnd | 2 | 86509 | 3428 | inactive
GCS2beta | 1 | 52558 | 3168 | inactive
nudE | 1 | 1.29e5 | 4974 | inactive
nudE | 2 | 1.20e5 | 6760 | inactive
Oda | 1 | 96665 | 4128 | inactive
CG15353 | 1 | 1.67e5 | 6388 | inactive
CalpA | 1 | 1.46e5 | 4982 | inactive
Crk | 1 | 1791 | 928 | inactive
Rnb | 1 | 1706 | 964 | inactive
Saf6 | 1 | 86080 | 3965 | inactive
hang | 1 | 5147 | 672 | inactive
hang | 2 | 87796 | 4246 | inactive
CG13862 | 1 | 1.20e5 | 7729 | inactive
VhaAC39-1 | 1 | 1957 | 948 | inactive
RpS29 + snoRNA:Psi18S-1275 | 1 | 73003 | 6546 | inactive
PIG-H + Kmn2 | 1 | 1.02e5 | 5449 | inactive
CG11127 | 1 | 97535 | 3829 | inactive

8 neighbouring records from above, for reference:
predicted target | reagent | E2F firefly, rep 1 | Renilla normaliser, rep 1 | outcome
hoka | 1 | 1.00e5 | 4056 | inactive
CG15019 | 1 | 84647 | 3563 | inactive
RPA1 | 1 | 63553 | 3509 | inactive
CG13501 | 1 | 1.23e5 | 4323 | inactive
Orc2 | 1 | 70064 | 3190 | inactive
E(bx) | 1 | 1.14e5 | 4972 | inactive
E(bx) | 2 | 1.06e5 | 5388 | inactive
E(bx) | 3 | 78866 | 3566 | inactive

More records follow:
predicted target | reagent | E2F firefly, rep 1 | Renilla normaliser, rep 1 | outcome
ppk27 | 1 | 98935 | 4478 | inactive
CG8028 | 1 | 1.34e5 | 6666 | inactive
twz | 1 | 1.08e5 | 4936 | inactive
drpr | 1 | 88738 | 3768 | inactive
drpr | 2 | 90078 | 4152 | inactive
CG14877 | 1 | 1.22e5 | 6753 | inactive
CG16700 | 1 | 1.53e5 | 6493 | inactive
CG13171 | 1 | 96915 | 3961 | inactive
CG4325 | 1 | 59199 | 4295 | inactive
Cpr72Ea | 1 | 82183 | 3989 | inactive
His3.3B | 1 | 89086 | 6943 | inactive
His3.3B | 2 | 45757 | 12293 | inactive
hubl | 1 | 1.29e5 | 4333 | inactive
Lam | 1 | 1.42e5 | 4765 | inactive
Gp93 | 1 | 1642 | 804 | inactive
Irc | 1 | 63165 | 3802 | inactive
Cyp6a13 | 1 | 2951 | 216 | inactive
RpL9 | 1 | 89495 | 146 | inactive
CG6695 | 1 | 79020 | 3961 | inactive
ms(3)76Cc | 1 | 1.41e5 | 7300 | inactive
